# In patent publication US10188858B2, “Method and device for treating a tissue with a high frequency electromagnetic field” (University of Cincinnati, priority 2013, dated 2019):
# At least one structure is not confirmed: it was looked up by name or label, or the drawing left a doubt.
# Test system: MEK
# Assay: Total and phosphorylated MEK levels (sandwich ELISA) with inhibitors
# Type: cell-based, C57 mice
# Description: Murine microvascular endothelial cells were isolated from the lungs of C57 mice (Jackson Laboratory, Maine, USA) as described previously. Cells were doubly sorted using PECAM-1- and ICAM-2-conjugated magnetic beads (Invitrogen Corporation, CA, USA) and cultured in medium M199 (HyClone, UT, USA) supplemented with 10% fetal bovine serum (FBS; Atlanta Biologicals, GA, USA), 1% antibiotic/antimycotic (AB/AM; Atlanta Biologicals, USA), 1% heparin (Sigma-Aldrich, MO, USA) and 1Ong/mL endothelial growth factor supplement (Sigma-Aldrich, MO, USA). Cells from passages 4-9 were used. […]
# Capillary morphogenesis, and MAPK pathways activation were quantified following 12 hours of EF exposure, and the analyses of VEGF expression, cell proliferation and apoptosis were conducted up to 24 hours of EF exposure. […]
# After EF exposure, cells were lysed using buffer containing 20 mM Tris-HCl, 150 mM NaCl, 1 mM Na2EDTA, 1 mM EGTA, 1% Triton, 2.5 mM sodium pyrophosphate, 1 mM beta-glycerophosphate, 1 mM Na3VO4, 1 μg/ml leupeptin and 1 mM phenylmethylsulfonyl fluoride (PMSF). The total protein concentration in each sample lysate was determined using CoomassiePlus Assay Kit (Thermo Fisher Scientific, IL, USA). […] The total and phosphorylated levels of ERK, MEK, p38 and JNK proteins were quantified using appropriate sandwich ELISA kits (Cell Signaling Technology, MA, USA). […]
compound,measurement,setting,value
O=c1cc(N2CCOCC2)oc2c(-c3ccccc3)cccc12 [LY294002],MEK phosphorylation,10 μM LY294002 (PI3K inhibition),significant reduction
same,stimulatory effect of high frequency EF on MEK phosphorylation,"in the presence of 10 μM LY294002, compared to no-EF controls",still retained
